Measurements as given in publication PMC7181751.
No constants are given. Whether binding was seen depends on the method and setting. In cells and extracts the contact can be indirect. Some results given as binding are weak or reduced against the parent protein; the word gives no strength. For some of these results: Where a sequence is shown, tags or fusion partners need not be part of it.

How the values were obtained:
[1] = molecular target: T1, mouse Ptch1 (pcDNA3-mPtch1) (mouse) (UniProt Q61115); assay: co-IP; NIH3T3/Cas9 Ptch1 KO cells transfected with mouse Ptch1, stimulated with Shh for 24 h; IP of Ptch1 and reciprocal IP of endogenous Boc, Western blot
T1 sequence: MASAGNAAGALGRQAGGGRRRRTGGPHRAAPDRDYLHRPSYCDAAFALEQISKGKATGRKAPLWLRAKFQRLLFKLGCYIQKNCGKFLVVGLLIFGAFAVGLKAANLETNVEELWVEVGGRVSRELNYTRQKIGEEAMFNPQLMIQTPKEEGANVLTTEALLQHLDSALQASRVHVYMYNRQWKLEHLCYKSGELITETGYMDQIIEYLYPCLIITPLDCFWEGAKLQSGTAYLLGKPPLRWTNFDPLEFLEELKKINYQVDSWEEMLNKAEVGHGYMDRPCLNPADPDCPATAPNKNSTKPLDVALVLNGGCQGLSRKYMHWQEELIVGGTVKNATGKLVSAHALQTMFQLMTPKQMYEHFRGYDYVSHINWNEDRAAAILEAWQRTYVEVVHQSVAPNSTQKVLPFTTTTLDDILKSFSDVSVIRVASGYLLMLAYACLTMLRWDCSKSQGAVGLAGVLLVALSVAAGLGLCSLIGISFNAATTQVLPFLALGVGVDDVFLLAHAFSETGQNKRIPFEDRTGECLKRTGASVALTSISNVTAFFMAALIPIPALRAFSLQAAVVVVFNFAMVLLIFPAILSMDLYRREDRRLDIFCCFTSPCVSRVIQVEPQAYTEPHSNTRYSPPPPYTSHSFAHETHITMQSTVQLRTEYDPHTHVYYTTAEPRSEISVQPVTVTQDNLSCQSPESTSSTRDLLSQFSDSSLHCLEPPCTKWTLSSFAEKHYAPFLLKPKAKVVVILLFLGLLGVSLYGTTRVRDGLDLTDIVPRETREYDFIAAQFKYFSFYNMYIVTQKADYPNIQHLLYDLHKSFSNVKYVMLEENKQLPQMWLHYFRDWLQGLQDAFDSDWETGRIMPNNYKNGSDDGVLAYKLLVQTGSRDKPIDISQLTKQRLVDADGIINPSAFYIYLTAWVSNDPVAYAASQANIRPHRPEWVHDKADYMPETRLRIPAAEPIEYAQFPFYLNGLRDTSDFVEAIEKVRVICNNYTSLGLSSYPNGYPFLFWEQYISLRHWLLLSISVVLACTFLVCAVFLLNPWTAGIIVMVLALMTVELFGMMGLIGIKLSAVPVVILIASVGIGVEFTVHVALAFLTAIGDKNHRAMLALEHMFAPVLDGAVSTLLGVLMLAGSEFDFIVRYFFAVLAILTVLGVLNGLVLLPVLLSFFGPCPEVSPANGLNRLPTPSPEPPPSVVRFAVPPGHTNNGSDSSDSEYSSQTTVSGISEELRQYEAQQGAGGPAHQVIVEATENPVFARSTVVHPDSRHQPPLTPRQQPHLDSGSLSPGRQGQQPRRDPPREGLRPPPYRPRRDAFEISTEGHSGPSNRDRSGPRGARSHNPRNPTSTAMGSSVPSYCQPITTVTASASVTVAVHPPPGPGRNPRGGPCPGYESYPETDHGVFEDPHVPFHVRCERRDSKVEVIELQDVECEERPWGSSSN

[2] = molecular target: T1, mouse Ptch1 (pcDNA3-mPtch1) (mouse); assay: co-IP; NIH3T3/Cas9 Ptch1 KO cells transfected with mouse Ptch1, unstimulated and 40 min after Shh (partial release at 40 min); IP of Ptch1 and reciprocal IP of endogenous Boc, Western blot
[3] = molecular target: T2, mouse Ptch2, Myc-tagged (pCMV6-mPtch2-MycDDK) (mouse) (UniProt O35595); assay: co-IP; NIH3T3/Cas9 Ptch1 KO cells transfected with Myc-tagged Ptch2, stimulated with Shh protein (200 ng/mL) in serum-free medium for 40 min; IP of Ptch2 and reciprocal IP with antibody against endogenous Gas1, Western blot
T2 sequence: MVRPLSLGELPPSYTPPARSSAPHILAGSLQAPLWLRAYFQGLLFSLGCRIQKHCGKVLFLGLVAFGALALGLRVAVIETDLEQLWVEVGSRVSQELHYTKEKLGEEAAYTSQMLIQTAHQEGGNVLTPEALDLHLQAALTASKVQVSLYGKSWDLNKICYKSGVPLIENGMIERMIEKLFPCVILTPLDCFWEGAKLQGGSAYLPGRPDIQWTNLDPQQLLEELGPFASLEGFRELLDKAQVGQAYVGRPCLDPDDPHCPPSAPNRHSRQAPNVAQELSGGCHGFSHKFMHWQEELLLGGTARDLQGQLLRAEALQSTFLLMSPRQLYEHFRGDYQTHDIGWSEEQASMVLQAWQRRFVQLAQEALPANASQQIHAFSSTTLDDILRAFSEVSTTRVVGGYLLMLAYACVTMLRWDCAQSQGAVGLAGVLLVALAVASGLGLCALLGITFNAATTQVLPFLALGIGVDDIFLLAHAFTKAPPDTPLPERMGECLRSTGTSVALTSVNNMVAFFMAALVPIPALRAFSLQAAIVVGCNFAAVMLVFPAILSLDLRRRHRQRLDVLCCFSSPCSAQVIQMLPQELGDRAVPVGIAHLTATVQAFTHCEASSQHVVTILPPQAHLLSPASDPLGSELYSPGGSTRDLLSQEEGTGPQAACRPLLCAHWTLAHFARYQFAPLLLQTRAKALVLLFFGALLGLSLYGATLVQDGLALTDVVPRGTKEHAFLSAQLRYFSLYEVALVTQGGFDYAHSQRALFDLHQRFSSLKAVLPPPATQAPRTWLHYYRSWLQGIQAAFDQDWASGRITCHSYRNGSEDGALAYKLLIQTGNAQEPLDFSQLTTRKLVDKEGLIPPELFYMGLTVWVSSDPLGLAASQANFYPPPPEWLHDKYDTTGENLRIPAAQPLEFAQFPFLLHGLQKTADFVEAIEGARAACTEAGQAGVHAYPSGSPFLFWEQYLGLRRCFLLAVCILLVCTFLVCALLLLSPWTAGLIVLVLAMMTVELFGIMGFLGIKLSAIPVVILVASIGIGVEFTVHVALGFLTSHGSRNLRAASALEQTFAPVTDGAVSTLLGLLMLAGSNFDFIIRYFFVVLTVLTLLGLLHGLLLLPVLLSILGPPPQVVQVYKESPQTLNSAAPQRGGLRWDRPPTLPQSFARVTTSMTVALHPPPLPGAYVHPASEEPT

[4] = molecular target: T2, mouse Ptch2, Myc-tagged (pCMV6-mPtch2-MycDDK) (mouse); assay: co-IP; NIH3T3/Cas9 Ptch1 KO cells transfected with Myc-tagged Ptch2, unstimulated (no Shh); IP of Ptch2 and reciprocal IP with antibody against endogenous Gas1, Western blot; lysis in 50 mM HEPES, 150 mM NaCl, 10% glycerol, 1% Nonidet P-40, 1 mM EDTA; protein A/G-agarose

B1: Boc (bioregional Cdon-binding protein), endogenous (receptor, UniProt Q6AZB0 26-1110)
chain: DLNEVPQVTVQPMSTVQKLGGTVILGCVVEPPWMNVTWRFNGKELNGSDDALGVFITRGTLVIAALNNHTVGRYQCVARMPAGAVASVPATVTLANLQDFKLDVQHVIEVDEGNTAVIACHLPESHPKAQVRYSVKQEWLEASRDNYLIMPSGNLQIVNASQEDEGMYKCAAYNPVTQEVKTSGSGDRLRVRRSTAEAARIIYPLEAQTVIVTKGQSLILECVASGIPPPRVTWAKDGSSIAAYNKTRFLLSNLLIDTTSEEDSGTYRCMASNGVGDPGAAVILYNVQVFEPPEVTVELSQLVIPWGQSAKLTCEVRGNPPPSVLWLRNAVPLTSSQRLRLSRRALRVVSVGPEDEGVYQCMAENAVGSAHAVVQLRTARPDTTLRPGRDTKPIAATPPMPPSRPSRPDQMLREQPGLVKPPTSSVQPTSLKCPGEEQVAPAEAPIILSSPRTSKTDSYELVWRPRHEGSSRTPILYYVVKHRKVTNSSDDWTISGIPANQHRLTLTRLDPGSLYEVEMAAYNCAGEGQTAMVTFRTGRRPKPEIVASKEQQIQRDDPGASLQSSSQPDHGRLSPPEAPDRPTISTASETSVYVTWIPRGNGGFPIQSFRVEYKKLKKVGDWILATSAIPPSRLSVEITGLEKGISYKFRVRALNMLGESEPSAPSRPYVVSGYSGRVYERPVAGPYITFTDAVNETTIMLKWMYIPASNNNTPIHGFYIYYRPTDSDNDSDYKKDMVEGDRYWHSISHLQPETSYDIKMQCFNEGGESEFSNVMICETKARKFSGQPGRPPPLTLAPPQPPPLETMERPVGTGAMVARASDLPYLIVGVVLGSIVLIIVTFIPFCLWRAWSKQKHTTDLGFPRSALLSSSCQYTMVPLEGLPGHQANGQPYLGGVSGRACVSRVHGSRGCPAATVGCPGRKPQQHCPGELAQQREDTNSQLRQPIVSNGYDLQNQQVARGPQCASGVGAFLYTLPDDSTHQLLQPQDCCHLQKQPVTTCQTAVRRTSESPGLESSWDPPYHSGPRCCLGLVPVEEVDSSDSCQVGGGDWSSQHPSGTYTGQERGMRFSPSPSVHVSFETPPPTI
With B1 the binding [1] was “no binding (condition: after Shh for 24 h)”, the binding [2] was “binds” and the binding [3] was “no binding”. The binding [4] was “no binding”.
